This note sets out measurements from PMC6295167.

Sequences of proteins named here, by UniProt entry; tags and fusion partners are left off.
UniProt P32600: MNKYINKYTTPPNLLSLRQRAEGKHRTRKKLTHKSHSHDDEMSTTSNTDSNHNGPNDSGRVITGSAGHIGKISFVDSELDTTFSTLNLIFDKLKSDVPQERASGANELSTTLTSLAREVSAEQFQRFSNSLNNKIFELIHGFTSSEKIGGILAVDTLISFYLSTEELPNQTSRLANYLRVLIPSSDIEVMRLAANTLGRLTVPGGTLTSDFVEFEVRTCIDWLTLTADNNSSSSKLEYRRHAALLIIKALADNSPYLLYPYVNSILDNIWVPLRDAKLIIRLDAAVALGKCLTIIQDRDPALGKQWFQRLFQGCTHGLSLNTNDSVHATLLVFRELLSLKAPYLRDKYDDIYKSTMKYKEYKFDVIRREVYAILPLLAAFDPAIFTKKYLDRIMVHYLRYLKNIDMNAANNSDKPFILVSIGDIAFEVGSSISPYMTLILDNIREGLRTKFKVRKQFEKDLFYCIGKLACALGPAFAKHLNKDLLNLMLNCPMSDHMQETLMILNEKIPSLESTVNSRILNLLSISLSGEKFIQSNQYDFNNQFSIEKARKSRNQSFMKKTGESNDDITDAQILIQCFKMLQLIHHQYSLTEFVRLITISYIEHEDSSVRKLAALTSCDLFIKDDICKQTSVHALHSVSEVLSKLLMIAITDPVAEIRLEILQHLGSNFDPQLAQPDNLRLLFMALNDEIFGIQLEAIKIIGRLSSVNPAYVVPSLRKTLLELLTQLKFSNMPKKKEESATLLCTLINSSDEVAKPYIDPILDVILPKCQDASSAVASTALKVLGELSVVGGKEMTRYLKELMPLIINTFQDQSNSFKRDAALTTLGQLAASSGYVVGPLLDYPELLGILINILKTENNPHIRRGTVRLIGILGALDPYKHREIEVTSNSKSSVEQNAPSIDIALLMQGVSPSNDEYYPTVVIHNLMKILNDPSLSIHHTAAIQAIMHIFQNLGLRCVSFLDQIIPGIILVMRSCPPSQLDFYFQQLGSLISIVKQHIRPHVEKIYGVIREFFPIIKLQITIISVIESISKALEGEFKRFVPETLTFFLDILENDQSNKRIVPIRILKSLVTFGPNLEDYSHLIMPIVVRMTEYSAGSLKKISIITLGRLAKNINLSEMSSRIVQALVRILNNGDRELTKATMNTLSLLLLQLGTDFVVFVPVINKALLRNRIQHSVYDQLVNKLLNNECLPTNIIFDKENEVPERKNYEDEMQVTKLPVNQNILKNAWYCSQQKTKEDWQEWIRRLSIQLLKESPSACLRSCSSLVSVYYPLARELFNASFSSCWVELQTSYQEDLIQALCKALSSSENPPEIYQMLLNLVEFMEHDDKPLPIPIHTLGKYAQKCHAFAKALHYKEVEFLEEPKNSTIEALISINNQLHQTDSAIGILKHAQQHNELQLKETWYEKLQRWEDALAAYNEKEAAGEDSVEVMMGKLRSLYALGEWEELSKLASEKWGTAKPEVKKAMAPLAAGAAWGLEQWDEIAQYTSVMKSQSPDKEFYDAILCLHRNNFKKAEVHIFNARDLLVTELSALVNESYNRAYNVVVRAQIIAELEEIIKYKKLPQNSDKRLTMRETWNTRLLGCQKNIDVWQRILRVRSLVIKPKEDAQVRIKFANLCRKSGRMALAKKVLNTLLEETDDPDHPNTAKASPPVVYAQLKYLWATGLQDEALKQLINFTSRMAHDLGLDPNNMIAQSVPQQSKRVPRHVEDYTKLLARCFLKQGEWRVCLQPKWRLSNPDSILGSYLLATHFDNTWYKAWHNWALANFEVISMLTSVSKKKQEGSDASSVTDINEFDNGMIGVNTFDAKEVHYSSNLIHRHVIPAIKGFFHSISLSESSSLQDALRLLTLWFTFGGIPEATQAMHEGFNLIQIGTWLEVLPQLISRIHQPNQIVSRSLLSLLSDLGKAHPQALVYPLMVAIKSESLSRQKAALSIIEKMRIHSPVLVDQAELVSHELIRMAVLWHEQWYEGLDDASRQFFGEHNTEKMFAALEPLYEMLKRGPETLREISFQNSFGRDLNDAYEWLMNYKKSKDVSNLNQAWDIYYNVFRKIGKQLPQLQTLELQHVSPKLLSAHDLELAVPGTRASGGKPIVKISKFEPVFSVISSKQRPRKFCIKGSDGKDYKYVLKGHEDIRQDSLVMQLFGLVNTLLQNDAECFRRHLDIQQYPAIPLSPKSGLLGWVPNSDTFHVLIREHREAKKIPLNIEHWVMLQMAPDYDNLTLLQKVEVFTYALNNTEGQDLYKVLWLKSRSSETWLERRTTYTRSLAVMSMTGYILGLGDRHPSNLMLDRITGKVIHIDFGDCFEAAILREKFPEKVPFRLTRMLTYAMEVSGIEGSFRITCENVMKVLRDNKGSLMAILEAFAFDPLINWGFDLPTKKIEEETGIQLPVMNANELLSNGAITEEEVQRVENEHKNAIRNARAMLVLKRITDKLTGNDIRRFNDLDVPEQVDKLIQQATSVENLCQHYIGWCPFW

For this test, the target named is T1, Avo3-3xFlag (S. cerevisiae) (UniProt P40061).
T1 sequence: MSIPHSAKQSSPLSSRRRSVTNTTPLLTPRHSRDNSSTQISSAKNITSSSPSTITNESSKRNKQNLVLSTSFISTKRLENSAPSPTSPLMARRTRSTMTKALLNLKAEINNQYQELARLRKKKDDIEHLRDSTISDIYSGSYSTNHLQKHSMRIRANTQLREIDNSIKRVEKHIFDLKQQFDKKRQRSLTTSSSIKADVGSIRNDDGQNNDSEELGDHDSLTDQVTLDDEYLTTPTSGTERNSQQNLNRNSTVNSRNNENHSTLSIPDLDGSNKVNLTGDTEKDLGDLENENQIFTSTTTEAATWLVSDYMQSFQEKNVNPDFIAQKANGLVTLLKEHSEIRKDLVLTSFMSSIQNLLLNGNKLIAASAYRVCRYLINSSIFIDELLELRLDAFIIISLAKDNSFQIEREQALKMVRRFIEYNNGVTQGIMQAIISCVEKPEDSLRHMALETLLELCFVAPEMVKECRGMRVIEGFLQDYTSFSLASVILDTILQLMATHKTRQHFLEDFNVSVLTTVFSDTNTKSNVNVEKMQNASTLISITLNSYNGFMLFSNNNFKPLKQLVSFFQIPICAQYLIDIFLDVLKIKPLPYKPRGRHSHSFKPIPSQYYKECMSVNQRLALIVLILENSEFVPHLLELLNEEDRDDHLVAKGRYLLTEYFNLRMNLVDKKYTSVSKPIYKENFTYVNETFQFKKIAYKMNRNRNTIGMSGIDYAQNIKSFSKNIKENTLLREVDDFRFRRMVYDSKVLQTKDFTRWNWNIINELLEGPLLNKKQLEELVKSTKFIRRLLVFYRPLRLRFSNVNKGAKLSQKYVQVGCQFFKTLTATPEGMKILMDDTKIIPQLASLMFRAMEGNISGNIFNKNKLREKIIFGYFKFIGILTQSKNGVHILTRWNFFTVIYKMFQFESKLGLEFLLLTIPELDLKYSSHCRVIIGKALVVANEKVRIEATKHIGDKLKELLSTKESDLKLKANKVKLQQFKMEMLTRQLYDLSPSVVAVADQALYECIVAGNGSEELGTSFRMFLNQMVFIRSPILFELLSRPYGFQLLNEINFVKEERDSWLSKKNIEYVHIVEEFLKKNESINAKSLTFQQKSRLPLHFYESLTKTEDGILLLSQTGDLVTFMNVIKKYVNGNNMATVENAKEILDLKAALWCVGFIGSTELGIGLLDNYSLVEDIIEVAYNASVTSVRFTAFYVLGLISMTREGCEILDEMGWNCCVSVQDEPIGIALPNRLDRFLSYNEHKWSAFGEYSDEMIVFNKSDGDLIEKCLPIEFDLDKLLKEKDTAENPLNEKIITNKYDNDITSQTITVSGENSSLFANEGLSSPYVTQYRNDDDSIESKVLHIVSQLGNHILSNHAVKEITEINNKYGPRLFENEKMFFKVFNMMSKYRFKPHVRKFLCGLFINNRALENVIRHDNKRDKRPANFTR
The experiment in a line: co-IP; yeast lysates (glass beads, TNEG buffer with Tris pH 7.6, NaCl, glycerol, Tergitol, EDTA) immunoabsorbed to mouse anti-Flag affinity gel through Avo3-3xFlag, washed four times with 1x TNEG, immunoblot; Avo2 quantified as the Avo2 to Tor2 ratio, three independent experiments.

Results are given in words; binding and its absence hold for the method and conditions named. In cells and extracts the contact can be indirect. Some binding calls cover weakened binding; strength is not graded here. Sequences can lack the tags named with a protein.

Turning to “Tor2-mNG-3xHA (from UniProt P32600 1-2474)”, the binding entry is given as “binds”.

B1: Avo2-mKate (protein, UniProt Q04749 1-426)
chain: MLKEPSVRLREAIIEGNLLIVKRLLRRNPDLLTNIDSENGWSSLHYASYHGRYLICVYLIQLGHDKHELIKTFKGNTCVHLALMKGHEQTLHLLLQQFPRFINHRGENGRAPIHIACMNDYYQCLSLLIGVGADLWVMDTNGDTPLHVCLEYGSISCMKMLLNEGEVSLDDNVRDKGNWKPIDVAQTFEVGNIYSKVLKEVKKKGPPLGAGKKPSSFRTPILNAKATFEDGPSPVLSMNSPYSLYSNNSPLPVLPRRISTHTTSGNGGNRRSSITNPVFNPRKPTLSTDSFSSSSNSSSRLRVNSINVKTPVGVSPKKELVSESVRHSATPTSPHNNIALINRYLLPNKSNDNVRGDSQTATINDDGGGGNGGDATIGMGLRKDPDDENENKYKIKVNNGEPRRRVSLLNIPISKLRNSNNTRAED
With B1, the binding entry is “binds”.
